{"source": "PubChem BioAssay AID1224830 (NIAID, 2016)", "purpose": "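Host factors that control LPS-induced TNF expression in human macrophages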 (primary screen)", "cell system": "human THP-1 monocytic leukaemia cells, TNF dual-luciferase reporter clone, PMA-differentiated to macrophage-like cells", "reagent": "siRNA pool against human genes, 50 nM", "duration": "LPS for 4 h, given about 3 days after siRNA transfection", "conditions": "bacterial LPS (TLR4 ligand), 10 ng/ml", "read-out": "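Ratio of firefly to renilla light, scaled to the plate median and expressed as a robust z-score per replicate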", "scale": "TNF reporter robust z-score: higher = stronger TNF reporter response to LPS", "call rule": "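Each well counts as active if its z-score is over 2.8 or under -1.5; controls are left without a call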", "note": "Here is a random part of about 18,000 reagents tested. In the full data, about 2,900 (16%) are marked active. 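Calls are made per well; low scores hint the gene aids the LPS response, high scores that it dampens it.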 Entries without a mark were called inactive. Repeated entries: four replicate wells of each siRNA pool."}
{"target gene":"FAM227B","TNF reporter robust z-score":0.51}
{"target gene":"FAM227B","TNF reporter robust z-score":0.26}
{"target gene":"FAM227B","TNF reporter robust z-score":0.74}
{"target gene":"FAM227B","TNF reporter robust z-score":0.22}
{"target gene":"ANXA2R","TNF reporter robust z-score":0.49}
{"target gene":"ANXA2R","TNF reporter robust z-score":0.56}
{"target gene":"ANXA2R","TNF reporter robust z-score":0.14}
{"target gene":"ANXA2R","TNF reporter robust z-score":1.07}
{"target gene":"CALML6","TNF reporter robust z-score":0.26}
{"target gene":"CALML6","TNF reporter robust z-score":1}
{"target gene":"CALML6","TNF reporter robust z-score":1.32}
{"target gene":"CALML6","TNF reporter robust z-score":0.11}

Laid out differently: results already given.
ANXA2R: TNF reporter robust z-score = 1.07
CALML6: TNF reporter robust z-score = 0.26

Continued:
{"target gene":"PRSS8","TNF reporter robust z-score":0.61}
{"target gene":"PRSS8","TNF reporter robust z-score":0.86}
{"target gene":"PRSS8","TNF reporter robust z-score":-0.88}
{"target gene":"PRSS8","TNF reporter robust z-score":-0.16}
{"target gene":"MYH1","TNF reporter robust z-score":1.27}
{"target gene":"MYH1","TNF reporter robust z-score":"3.82 (active)"}
{"target gene":"MYH1","TNF reporter robust z-score":"2.97 (active)"}
{"target gene":"MYH1","TNF reporter robust z-score":1.21}
